Test results taken from the supplement of paper PMC12067093, “Discovery and optimisation of a covalent ligand for TRIM25 and its application to targeted protein ubiquitination” (Chemical Science, 2025).
The other results are listed elsewhere or left out.

Amino acid sequences for entries named in this document (tags omitted). A change or cut given only in a name is not applied to a line headed by its entry.
UniProt Q9Y490: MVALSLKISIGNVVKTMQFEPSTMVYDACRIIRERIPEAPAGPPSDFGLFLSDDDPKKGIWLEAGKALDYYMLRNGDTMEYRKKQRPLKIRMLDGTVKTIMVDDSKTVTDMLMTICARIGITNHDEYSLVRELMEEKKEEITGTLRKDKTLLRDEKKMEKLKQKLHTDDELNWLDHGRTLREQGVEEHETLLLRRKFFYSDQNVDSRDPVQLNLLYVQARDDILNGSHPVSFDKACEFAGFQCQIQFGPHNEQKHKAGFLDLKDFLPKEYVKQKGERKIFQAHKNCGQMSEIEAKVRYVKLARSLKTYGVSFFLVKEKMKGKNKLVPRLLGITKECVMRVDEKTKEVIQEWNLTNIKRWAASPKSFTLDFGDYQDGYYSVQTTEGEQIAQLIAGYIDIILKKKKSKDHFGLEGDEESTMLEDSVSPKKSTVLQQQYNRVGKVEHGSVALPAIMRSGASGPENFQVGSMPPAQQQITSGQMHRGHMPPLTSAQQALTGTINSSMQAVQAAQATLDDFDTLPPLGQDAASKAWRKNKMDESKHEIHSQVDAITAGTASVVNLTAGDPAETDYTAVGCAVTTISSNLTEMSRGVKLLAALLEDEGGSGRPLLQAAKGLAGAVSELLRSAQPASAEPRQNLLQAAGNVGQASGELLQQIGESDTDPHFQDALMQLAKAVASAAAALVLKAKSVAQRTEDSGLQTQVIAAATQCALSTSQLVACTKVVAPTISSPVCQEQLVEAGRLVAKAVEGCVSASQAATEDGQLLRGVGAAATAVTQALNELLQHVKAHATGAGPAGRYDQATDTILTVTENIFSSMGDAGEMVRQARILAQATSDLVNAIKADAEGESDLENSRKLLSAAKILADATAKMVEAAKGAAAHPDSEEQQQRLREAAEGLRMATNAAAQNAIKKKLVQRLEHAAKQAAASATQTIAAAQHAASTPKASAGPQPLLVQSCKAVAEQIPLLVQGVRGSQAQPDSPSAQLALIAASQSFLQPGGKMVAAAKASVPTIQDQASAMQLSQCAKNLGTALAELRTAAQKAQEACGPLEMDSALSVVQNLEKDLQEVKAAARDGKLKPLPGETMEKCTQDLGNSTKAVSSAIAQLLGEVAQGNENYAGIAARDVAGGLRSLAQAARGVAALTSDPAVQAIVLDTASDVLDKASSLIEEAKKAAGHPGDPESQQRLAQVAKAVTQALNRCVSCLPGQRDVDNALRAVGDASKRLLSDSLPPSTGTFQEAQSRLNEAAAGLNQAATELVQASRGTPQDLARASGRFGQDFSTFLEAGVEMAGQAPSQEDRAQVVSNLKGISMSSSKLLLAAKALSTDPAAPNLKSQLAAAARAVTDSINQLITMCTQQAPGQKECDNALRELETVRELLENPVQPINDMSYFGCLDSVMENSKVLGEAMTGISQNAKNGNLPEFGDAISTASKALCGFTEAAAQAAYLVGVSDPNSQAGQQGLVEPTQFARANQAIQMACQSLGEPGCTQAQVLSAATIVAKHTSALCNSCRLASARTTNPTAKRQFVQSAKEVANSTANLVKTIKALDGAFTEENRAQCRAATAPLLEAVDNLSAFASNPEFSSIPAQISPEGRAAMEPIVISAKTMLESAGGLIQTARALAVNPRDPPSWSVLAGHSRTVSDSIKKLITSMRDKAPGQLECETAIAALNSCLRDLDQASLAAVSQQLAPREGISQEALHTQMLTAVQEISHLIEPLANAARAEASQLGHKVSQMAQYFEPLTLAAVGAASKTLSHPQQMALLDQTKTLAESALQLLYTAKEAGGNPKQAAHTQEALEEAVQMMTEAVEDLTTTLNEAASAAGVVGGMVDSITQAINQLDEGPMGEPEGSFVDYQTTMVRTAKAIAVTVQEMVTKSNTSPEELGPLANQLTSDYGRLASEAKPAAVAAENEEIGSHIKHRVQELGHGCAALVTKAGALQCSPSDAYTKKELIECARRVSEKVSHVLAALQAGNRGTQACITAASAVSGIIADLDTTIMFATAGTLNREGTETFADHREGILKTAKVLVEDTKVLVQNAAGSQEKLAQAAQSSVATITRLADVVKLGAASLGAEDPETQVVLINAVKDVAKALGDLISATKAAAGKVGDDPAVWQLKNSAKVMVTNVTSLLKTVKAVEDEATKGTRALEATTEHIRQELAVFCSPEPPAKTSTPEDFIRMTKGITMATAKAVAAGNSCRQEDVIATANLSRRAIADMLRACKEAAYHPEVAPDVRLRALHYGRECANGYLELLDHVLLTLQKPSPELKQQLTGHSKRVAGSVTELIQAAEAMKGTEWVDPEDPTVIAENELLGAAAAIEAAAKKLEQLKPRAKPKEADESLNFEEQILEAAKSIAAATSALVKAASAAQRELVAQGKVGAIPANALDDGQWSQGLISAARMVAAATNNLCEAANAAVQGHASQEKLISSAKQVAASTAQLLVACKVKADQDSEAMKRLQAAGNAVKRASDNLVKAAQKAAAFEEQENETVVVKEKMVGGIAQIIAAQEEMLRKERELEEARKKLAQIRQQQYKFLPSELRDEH
UniProt Q92547, whole entry, looked up: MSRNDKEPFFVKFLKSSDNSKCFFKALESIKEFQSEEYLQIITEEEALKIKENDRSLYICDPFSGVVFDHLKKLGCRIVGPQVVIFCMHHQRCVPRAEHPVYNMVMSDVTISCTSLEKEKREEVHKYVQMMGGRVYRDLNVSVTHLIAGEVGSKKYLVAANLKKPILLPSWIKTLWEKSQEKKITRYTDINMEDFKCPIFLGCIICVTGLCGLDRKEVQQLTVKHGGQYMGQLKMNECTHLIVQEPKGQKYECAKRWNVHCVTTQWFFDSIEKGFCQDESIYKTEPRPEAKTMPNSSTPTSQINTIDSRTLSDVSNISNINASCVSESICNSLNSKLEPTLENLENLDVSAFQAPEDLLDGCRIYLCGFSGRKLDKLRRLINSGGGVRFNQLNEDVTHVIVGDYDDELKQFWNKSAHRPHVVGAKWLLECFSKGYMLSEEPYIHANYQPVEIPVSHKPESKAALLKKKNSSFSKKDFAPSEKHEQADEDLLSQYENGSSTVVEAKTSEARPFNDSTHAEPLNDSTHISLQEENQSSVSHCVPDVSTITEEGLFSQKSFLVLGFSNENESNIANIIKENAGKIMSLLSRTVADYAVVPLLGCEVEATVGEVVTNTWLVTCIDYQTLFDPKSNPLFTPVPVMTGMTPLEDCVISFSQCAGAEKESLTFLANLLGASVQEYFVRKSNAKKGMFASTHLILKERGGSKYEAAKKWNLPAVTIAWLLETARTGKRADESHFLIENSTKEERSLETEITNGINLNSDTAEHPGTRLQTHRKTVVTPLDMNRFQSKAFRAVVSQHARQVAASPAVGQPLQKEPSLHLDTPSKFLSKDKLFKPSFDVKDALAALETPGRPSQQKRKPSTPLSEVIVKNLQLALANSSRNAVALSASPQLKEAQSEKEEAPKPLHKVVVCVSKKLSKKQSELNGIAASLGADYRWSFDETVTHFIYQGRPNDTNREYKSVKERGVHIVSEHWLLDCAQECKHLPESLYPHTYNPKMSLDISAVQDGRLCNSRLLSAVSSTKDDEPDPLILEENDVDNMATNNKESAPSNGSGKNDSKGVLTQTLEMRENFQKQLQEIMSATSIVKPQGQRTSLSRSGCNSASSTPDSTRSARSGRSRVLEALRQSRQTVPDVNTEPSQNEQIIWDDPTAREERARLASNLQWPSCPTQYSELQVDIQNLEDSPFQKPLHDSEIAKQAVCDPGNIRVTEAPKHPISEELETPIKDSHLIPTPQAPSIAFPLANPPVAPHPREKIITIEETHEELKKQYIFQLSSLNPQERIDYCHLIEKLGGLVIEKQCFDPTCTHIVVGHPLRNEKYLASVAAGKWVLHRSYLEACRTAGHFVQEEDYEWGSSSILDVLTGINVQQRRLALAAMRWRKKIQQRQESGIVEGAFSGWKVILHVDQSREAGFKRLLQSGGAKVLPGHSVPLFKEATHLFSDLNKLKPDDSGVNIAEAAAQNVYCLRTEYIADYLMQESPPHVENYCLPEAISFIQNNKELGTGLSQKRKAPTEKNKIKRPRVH
UniProt Q68CZ2: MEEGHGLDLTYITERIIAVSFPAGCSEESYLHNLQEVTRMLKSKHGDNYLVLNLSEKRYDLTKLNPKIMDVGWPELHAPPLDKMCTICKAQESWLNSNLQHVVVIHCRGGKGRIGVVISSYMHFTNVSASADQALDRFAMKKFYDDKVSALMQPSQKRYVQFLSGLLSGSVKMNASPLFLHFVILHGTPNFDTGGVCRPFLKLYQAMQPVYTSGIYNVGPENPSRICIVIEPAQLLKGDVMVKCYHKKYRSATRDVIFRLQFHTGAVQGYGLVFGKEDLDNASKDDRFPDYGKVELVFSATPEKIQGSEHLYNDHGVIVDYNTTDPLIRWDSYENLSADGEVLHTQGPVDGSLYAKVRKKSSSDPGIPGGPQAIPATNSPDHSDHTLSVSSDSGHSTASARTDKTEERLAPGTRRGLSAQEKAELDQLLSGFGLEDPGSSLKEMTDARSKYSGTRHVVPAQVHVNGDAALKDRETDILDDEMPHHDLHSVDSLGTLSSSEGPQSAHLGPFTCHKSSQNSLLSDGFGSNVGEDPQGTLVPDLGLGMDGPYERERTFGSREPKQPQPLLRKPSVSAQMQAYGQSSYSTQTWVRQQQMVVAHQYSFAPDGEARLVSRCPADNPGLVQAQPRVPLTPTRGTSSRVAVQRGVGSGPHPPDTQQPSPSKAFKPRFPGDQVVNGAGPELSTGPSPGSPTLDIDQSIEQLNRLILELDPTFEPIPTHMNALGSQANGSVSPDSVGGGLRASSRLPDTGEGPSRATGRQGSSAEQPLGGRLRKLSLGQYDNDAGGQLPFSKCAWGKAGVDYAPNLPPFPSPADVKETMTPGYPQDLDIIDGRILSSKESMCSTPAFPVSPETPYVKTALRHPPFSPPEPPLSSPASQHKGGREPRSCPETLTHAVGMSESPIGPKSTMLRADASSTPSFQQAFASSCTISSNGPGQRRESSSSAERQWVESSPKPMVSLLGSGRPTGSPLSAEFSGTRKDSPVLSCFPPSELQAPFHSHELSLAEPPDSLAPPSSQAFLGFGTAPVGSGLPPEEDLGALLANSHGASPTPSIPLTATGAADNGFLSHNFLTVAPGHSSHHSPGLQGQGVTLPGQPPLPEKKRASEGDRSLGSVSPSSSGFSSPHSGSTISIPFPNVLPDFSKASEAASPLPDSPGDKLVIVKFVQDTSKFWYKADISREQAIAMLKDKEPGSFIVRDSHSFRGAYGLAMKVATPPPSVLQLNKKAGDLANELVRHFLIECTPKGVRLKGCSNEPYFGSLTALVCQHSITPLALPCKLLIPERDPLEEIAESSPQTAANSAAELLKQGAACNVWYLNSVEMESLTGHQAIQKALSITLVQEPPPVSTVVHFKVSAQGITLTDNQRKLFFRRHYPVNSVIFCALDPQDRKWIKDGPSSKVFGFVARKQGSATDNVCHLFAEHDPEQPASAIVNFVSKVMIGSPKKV
UniProt Q9H3N1: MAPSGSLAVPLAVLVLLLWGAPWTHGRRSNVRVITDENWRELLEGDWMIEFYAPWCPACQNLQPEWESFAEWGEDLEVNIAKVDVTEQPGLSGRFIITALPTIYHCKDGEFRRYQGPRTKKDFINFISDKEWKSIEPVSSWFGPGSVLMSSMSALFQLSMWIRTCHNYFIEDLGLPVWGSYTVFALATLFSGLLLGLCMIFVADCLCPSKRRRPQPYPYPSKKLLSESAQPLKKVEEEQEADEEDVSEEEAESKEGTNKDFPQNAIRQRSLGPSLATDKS
UniProt Q9HD45: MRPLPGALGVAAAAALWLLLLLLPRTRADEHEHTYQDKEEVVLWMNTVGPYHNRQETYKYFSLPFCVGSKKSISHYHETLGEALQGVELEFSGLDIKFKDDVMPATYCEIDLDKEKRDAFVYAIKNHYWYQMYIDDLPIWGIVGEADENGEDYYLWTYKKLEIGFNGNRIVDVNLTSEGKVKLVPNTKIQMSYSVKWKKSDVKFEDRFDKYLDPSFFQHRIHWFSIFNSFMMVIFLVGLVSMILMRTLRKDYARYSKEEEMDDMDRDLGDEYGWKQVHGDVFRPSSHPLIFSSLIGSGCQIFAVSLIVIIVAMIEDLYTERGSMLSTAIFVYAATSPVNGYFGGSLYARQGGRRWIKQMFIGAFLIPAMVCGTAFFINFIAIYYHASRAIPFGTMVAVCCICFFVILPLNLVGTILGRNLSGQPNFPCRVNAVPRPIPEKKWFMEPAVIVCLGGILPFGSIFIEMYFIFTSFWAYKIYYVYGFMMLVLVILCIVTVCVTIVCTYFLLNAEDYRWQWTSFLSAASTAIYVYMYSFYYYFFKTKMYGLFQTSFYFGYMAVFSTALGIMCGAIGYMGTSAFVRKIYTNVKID
UniProt Q9Y3Q3: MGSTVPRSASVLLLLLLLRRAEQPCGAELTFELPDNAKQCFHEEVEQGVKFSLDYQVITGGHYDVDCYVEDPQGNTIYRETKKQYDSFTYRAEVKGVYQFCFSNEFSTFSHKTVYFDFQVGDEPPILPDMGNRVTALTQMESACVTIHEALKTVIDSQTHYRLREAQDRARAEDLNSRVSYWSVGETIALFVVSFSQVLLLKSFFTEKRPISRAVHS

Compound: CC1Cc2ccccc2N1C(=O)C1CCCN(C1)C(=O)CCl (mixture of isomers) [TRIM25 ligand 11 (diastereomer mixture)]
Experiment: probe-labelled cysteine peptide fold change vs DMSO (competition) (log2 fold change); higher = less target engagement (more negative = stronger competition)
Settings: THP-1, incubation time: 4 h
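Note: competitive chemoproteomic profiling in live THP-1 cells with an iodoacetamide desthiobiotin (IA-DTB) probe, comparing probe-labelled peptide intensities in compound-treated cells against DMSO-treated controls.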

Row | Target | probe-labelled cysteine peptide fold change (10 µM) | probe-labelled cysteine peptide fold change (50 µM)
1 | TLN1_Q9Y490_1661_DKAPGQLECETAIAALNSCLR (UniProt Q9Y490) | 0.039 | -0.111
2 | TNPO3_Q9Y5L0_634_HTNPIVENGQTHPCQK (UniProt Q9Y5L0) | 0.0306 | -0.0104
3 | TLN1_Q9Y490_2243_ECANGYLELLDHVLLTLQK (UniProt Q9Y490) | -0.0271 | 0.00833
4 | TP53I3_Q53FA7_76_QGQYDPPPGASNILGLEASGHVAELGPGCQGHWK (UniProt Q53FA7) | -0.0917 | -0.143
5 | TOE1_Q96GM8_371_QVCGDSIKPEETEQEVAADETR (UniProt Q96GM8) | 0.0102 | -0.0457
6 | TMEM161A_Q9NX61_33_WLLCNGSLFR (UniProt Q9NX61) | -0.147 | 0.164
7 | TNPO1_Q92973_205_SHAVACVNQFIISR (UniProt Q92973) | 0.0597 | 0.189
8 | TOPBP1_Q92547_911_VVVCVSK (UniProt Q92547) | -0.129 | -0.0141
9 | TONSL_Q96HA7_596+608_FLLDHGAAVDDPGGQGCEGITPLHDALNCGHFEVAELLLER (UniProt Q96HA7) | 0.0631 | -0.336
10 | TNS3_Q68CZ2_1381_HYPVNSVIFCALDPQDRK (UniProt Q68CZ2) | -0.0374 | 0.0639
11 | TMEM63B_Q5T3F8_267_HFEEAYPNCTVLEAR (UniProt Q5T3F8) | 0.203 | 0.178
12 | TNRC18_O15417_2204_GNRPHIYCLEQLLQEAIIDVRPASTR (UniProt O15417) | -0.102 | 0.166
13 | TONSL_Q96HA7_1345_LCAEDRDALR (UniProt Q96HA7) | -0.0885 | -0.107
14 | TMEM120B_A0PK00_8_CEREWHELEGEFQELQETHR (UniProt A0PK00) | -0.18 | -0.0746
15 | TOP2A_P11388_997+1008_LQTSLTCNSMVLFDHVGCLK (UniProt P11388) | 0.072 | 0.179
16 | TONSL_Q96HA7_124_THLDIYDHCQSR (UniProt Q96HA7) | 0.0838 | 0.0245
17 | TOP2A_P11388_997_LQTSLTCNSMVLFDHVGCLK (UniProt P11388) | 0.078 | 0.205
18 | TOP2B_Q02880_321_WDVCLTLSEK (UniProt Q02880) | 0.192 | 0.137
19 | TPI1_P60174_124_DCGATWVVLGHSER (UniProt P60174) | 0.1 | 0.0907
20 | TMEM214_Q6NUQ4_222_ICIQAILQDKPK (UniProt Q6NUQ4) | 0.0567 | 0.0242
21 | TLN1_Q9Y490_1671_DKAPGQLECETAIAALNSCLR (UniProt Q9Y490) | -0.0788 | -0.176

Row | Target | probe-labelled cysteine peptide fold change (10 µM) | probe-labelled cysteine peptide fold change (50 µM)
22 | TMPO_P42166_330_DIVENICGR (UniProt P42166) | -0.0447 | -0.0177
23 | TNS3_Q68CZ2_842_ESMCSTPAFPVSPETPYVK (UniProt Q68CZ2) | 0.142 | 0.0525
24 | TLN1_Q9Y490_286_NCGQMSEIEAK (UniProt Q9Y490) | -0.114 | -0.122
25 | TOP2B_Q02880_93_KTQLEHILLRPDTYIGSVEPLTQFMWVYDEDVGMNCR (UniProt Q02880) | -0.0666 | -0.0769
26 | TOPBP1_Q92547_238_MNECTHLIVQEPK (UniProt Q92547) | -0.0485 | 0.0151
27 | TOMM34_Q15785_250_DCTEALK (UniProt Q15785) | -0.149 | -0.0878
28 | TOR1AIP1_Q5JTV8_496_YCDHENAAFK (UniProt Q5JTV8) | 0.0922 | 0.111
29 | TOP1_P11387_341_EYGFCIMDNHK (UniProt P11387) | -0.0915 | -0.217
30 | TP53BP1_Q12888_101_VADPVDSSNLDTCGSISQVIEQLPQPNR (UniProt Q12888) | 0.279 | -0.45
31 | TMX1_Q9H3N1_106_FIITALPTIYHCK (UniProt Q9H3N1) | -0.0411 | -0.0895
32 | TM9SF3_Q9HD45_66_YFSLPFCVGSK (UniProt Q9HD45) | 2.09e-05 | -0.143
33 | TNS3_Q68CZ2_1381_RHYPVNSVIFCALDPQDRK (UniProt Q68CZ2) | -0.0671 | 0.174
34 | TOPBP1_Q92547_113_AEHPVYNMVMSDVTISCTSLEK (UniProt Q92547) | -0.145 | -0.208
35 | TOP3B_O95985_58_MTSVCGHVMTLDFLGK (UniProt O95985) | 0.0618 | -0.113
36 | TNIP2_Q8NFZ5_144_AASDVLCR (UniProt Q8NFZ5) | -0.0729 | 0.106
37 | TLR2_O60603_353_VFLVPCLLSQHLK (UniProt O60603) | -0.0371 | -0.132
38 | TMED3_Q9Y3Q3_40_QCFHEEVEQGVK (UniProt Q9Y3Q3) | 0.00292 | 0.00481
39 | TMEM94_Q12767_459_SFCHPEPHER (UniProt Q12767) | 0.249 | -0.0281
40 | TOM1_O60784_77_NFHEVMLALTVLETCVK (UniProt O60784) | 0.106 | 0.00703
41 | TM9SF3_Q9HD45_108_DDVMPATYCEIDLDK (UniProt Q9HD45) | 0.319 | 0.245
